For this assay, the target named is T1, WNT1 inducible signaling pathway protein 1 (WISP1) (human (endogenous in LOVO and RKO)) (UniProt O95388).
T1 sequence: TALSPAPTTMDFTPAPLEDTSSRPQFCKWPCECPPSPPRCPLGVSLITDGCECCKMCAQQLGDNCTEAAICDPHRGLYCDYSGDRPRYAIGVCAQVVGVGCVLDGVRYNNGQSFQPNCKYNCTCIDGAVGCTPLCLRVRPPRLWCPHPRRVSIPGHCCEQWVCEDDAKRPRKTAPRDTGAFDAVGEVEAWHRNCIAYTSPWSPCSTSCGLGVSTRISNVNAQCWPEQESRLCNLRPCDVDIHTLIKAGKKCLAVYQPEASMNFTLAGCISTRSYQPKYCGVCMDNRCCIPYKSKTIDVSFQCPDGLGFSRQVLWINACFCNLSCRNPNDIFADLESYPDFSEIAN
As to the kind of experiment: co-IP; in LOVO and RKO cells; input and IP samples blotted with WISP1 and β-catenin antibodies; normal rabbit/mouse IgG listed; which protein was precipitated is not told; procedure as in ref. 45.

The chains behind the UniProt entries cited, without tags or fusion partners.
UniProt P35222: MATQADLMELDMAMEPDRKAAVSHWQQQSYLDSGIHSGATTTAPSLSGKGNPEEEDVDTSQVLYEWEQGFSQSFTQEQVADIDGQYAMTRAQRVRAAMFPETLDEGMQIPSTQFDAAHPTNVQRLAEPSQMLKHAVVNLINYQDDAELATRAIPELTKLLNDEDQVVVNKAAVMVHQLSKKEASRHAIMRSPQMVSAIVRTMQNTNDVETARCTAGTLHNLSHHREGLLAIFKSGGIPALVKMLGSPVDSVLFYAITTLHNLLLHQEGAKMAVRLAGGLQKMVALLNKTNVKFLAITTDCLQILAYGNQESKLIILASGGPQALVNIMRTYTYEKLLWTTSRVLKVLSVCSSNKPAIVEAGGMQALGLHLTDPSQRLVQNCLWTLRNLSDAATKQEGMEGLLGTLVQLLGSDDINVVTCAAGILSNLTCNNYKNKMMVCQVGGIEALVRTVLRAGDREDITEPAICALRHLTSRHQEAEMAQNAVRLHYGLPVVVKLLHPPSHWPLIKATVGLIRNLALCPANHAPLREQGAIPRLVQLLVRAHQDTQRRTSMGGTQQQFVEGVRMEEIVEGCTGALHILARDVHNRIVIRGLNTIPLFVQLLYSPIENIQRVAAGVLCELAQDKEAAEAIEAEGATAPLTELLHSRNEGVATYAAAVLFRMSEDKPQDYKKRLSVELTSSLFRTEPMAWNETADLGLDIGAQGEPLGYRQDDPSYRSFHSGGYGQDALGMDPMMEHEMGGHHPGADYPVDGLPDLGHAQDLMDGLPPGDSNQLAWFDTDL

These are yes or no findings as the source states them, for the method shown. In cells and extracts the contact can be indirect. Some entries that bind do so weakly or less than the wild type.

As for β-catenin (from UniProt P35222 1-781), the binding entry is given as “binds”.

For the origin of these results see paper PMC5226551.
